Measured values reported in patent US11382898B2, “BAX activators and uses thereof in cancer therapy” (Albert Einstein College of Medicine, priority 2017, dated 2022).

Chains of the proteins cited; added tags and fusions are not shown.
UniProt Q07812, whole entry: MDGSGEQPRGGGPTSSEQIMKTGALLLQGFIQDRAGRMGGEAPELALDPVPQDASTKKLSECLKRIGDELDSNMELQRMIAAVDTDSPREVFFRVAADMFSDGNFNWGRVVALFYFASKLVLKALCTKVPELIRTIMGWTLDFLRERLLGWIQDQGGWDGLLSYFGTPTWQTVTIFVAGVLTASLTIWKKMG

Assays:
THP-1 cells = details: non-cytotoxic doses of BTSA1, 24 h
[1] = mouse, in vivo
BAX = BAX (Homo sapiens, UniProt Q07812)
OCI-AML3 leukemia cells = assay: Synergistic cytotoxicity with BCL-2 inhibitors in OCI-AML3 leukemia cells; type: cell-based, human; details: non-cytotoxic doses, 24 h

With `O=C1C(=NNc2nccs2)C(c2ccccc2)=NN1c1nc(-c2ccccc2)cs1` [BTSA1, 5-phenyl-2-(4-phenylthiazol-2-yl)-4-(2-(thiazol-2-yl)hydrazono)-2,4-dihydro-3H-pyrazol-3-one] the “synergy with ABT-199 (venetoclax)” value (THP-1 cells) was “significant synergistic cytotoxicity”, the “synergy with ABT-263 (navitoclax)” value (THP-1 cells) was “significant synergistic cytotoxicity” and the “toxicity, tolerance” value [1] was “no detectable toxicity”. For the same molecule, the “mitochondrial outer membrane permeabilization, cytochrome c release” value (BAX) was “release of cytochrome c from mitochondria”, the “synergy with ABT-199 (venetoclax)” value (OCI-AML3 leukemia cells) was “significant synergistic cytotoxicity” and the “synergy with ABT-263 (navitoclax)” value (OCI-AML3 leukemia cells) was “significant synergistic cytotoxicity”.
